In patent US20030232742A1 (priority 2000, published 2003):

Experiment: general procedure: Fmoc solid-phase peptide synthesis; H-Pro-2-chlorotritylchloride-resin; DIC/HOBt

Row | Substance | final HPLC purity (coupling step) | final HPLC purity (whole synthesis, scale of the general procedure 200 mg resin, 0.158)
1 | Pyridin-3-ylmethoxycarbonyl-Pro-Ala-Gly-Pro-MNA (PAGP; N-3-pyridylmethyloxycarbonyl; C-terminal MNA; printed: Pro-Ala-Gly-Pro-) | HPLC>95% | –
2 | Pyridin-3-ylmethoxycarbonyl-Pro-Ala-Gly-Pro-OH | – | HPLC >95%
